PubChem BioAssay AID1224827 | NIAID – 2016

Screen: 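Identify regulators of the macrophage TNF-alpha response to bacterial LPS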 (follow-up of hits)
Cell system: RAW264.7 G9 mouse macrophage reporter clone
Reagents: single siRNA against mouse genes, 100 nM siRNA
Timing: siRNA for 2 days, then LPS about 16 h
Challenge: bacterial lipopolysaccharide (LPS), 10 ng/ml, cells fixed after overnight (about 16 h) stimulation
Detection: 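TNF promoter reporter red fluorescence in nuclei, background subtracted, normalised per plate and to non-targeting control siRNA, as z-scores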
Direction: TNF reporter z-score, mean and TNF reporter z-score: higher = stronger Tnf promoter reporter signal; gene median z, three same-vendor siRNAs: higher = stronger Tnf reporter signal for the gene
Rule for the call: 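Active siRNA: replicate-mean z-score of 2 or more, or -2 or less; no calls for control wells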
Here is a random part of about 3,800 deposited reagents. In the full data, about 2,200 (57%) are marked active. 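Active means a strong reporter change in either direction; calls are per siRNA, not per gene; qiagen siRNAs gave weaker effects.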 The numbers tell different reagents against one gene apart.

TNF reporter z-score, mean | gene median z, three same-vendor siRNAs | TNF reporter z-score, repeat 1 | TNF reporter z-score, repeat 2 | outcome | target gene | siRNA no.
-1.32 | -2.66 | -2.2 | -0.437 | inactive | Fam89b (family with sequence similarity 89, member B) | 1
-2.59 | -2.66 | -3.12 | -2.07 | active | Fam89b (family with sequence similarity 89, member B) | 2
-4.96 | -2.66 | -4.65 | -5.27 | active | Fam89b (family with sequence similarity 89, member B) | 3
7.88 | 2.4 | 13.2 | 2.53 | active | Fam89b (family with sequence similarity 89, member B) | 4
1.82 | 2.4 | 3.34 | 0.287 | inactive | Fam89b (family with sequence similarity 89, member B) | 5
0.53 | 2.4 | 2.26 | -1.2 | inactive | Fam89b (family with sequence similarity 89, member B) | 6
-0.309 | -2.32 | -2.25 | 1.63 | inactive | Nfe2l2 (nuclear factor, erythroid derived 2, like 2) | 1
-2.53 | -2.32 | -2.75 | -2.32 | active | Nfe2l2 (nuclear factor, erythroid derived 2, like 2) | 2
-2.77 | -2.32 | -3.22 | -2.32 | active | Nfe2l2 (nuclear factor, erythroid derived 2, like 2) | 3
0.47 | -0.41 | 2.15 | -1.21 | inactive | Nfe2l2 (nuclear factor, erythroid derived 2, like 2) | 4
-0.41 | -0.41 | -0.565 | -0.255 | inactive | Nfe2l2 (nuclear factor, erythroid derived 2, like 2) | 5
-0.915 | -0.41 | 0.217 | -2.05 | inactive | Nfe2l2 (nuclear factor, erythroid derived 2, like 2) | 6
-3.56 | -4.28 | -3.87 | -3.26 | active | Tnfrsf12a (tumor necrosis factor receptor superfamily, member 12a) | 1
-4.37 | -4.28 | -4.19 | -4.56 | active | Tnfrsf12a (tumor necrosis factor receptor superfamily, member 12a) | 2
-4.66 | -4.28 | -4.37 | -4.96 | active | Tnfrsf12a (tumor necrosis factor receptor superfamily, member 12a) | 3
-1.37 | -2.6 | -0.116 | -2.62 | inactive | Tnfrsf12a (tumor necrosis factor receptor superfamily, member 12a) | 4
-2.83 | -2.6 | -3.48 | -2.18 | active | Tnfrsf12a (tumor necrosis factor receptor superfamily, member 12a) | 5
-2.99 | -2.6 | -2.57 | -3.4 | active | Tnfrsf12a (tumor necrosis factor receptor superfamily, member 12a) | 6
4.22 | -0.995 | 3.85 | 4.6 | active | Bend6 (BEN domain containing 6) | 1
-0.995 | -0.995 | -1.73 | -0.256 | inactive | Bend6 (BEN domain containing 6) | 2
-4.79 | -0.995 | -4.95 | -4.63 | active | Bend6 (BEN domain containing 6) | 3
4.4 | 1.21 | 6.78 | 2.02 | active | Bend6 (BEN domain containing 6) | 4
4.42 | 1.21 | 8.43 | 0.404 | active | Bend6 (BEN domain containing 6) | 5
-1.03 | 1.21 | -0.84 | -1.21 | inactive | Bend6 (BEN domain containing 6) | 6
0.323 | -3.08 | 0.933 | -0.288 | inactive | Abcb1a (ATP-binding cassette, sub-family B member 1A) | 1
-3.08 | -3.08 | -4 | -2.15 | active | Abcb1a (ATP-binding cassette, sub-family B member 1A) | 2
-5.37 | -3.08 | -5.51 | -5.24 | active | Abcb1a (ATP-binding cassette, sub-family B member 1A) | 3
2.75 | 0.0899 | 4.44 | 1.07 | active | Abcb1a (ATP-binding cassette, sub-family B member 1A) | 4
0.0899 | 0.0899 | 0.516 | -0.336 | inactive | Abcb1a (ATP-binding cassette, sub-family B member 1A) | 5
-1.05 | 0.0899 | -1.02 | -1.08 | inactive | Abcb1a (ATP-binding cassette, sub-family B member 1A) | 6
-0.189 | -3.16 | -1.25 | 0.873 | inactive | Supt20 (SPT20 SAGA complex component) | 1
-3.59 | -3.16 | -4.46 | -2.72 | active | Supt20 (SPT20 SAGA complex component) | 2
-3.82 | -3.16 | -3.6 | -4.04 | active | Supt20 (SPT20 SAGA complex component) | 3
2.53 | -2.98 | 5.03 | 0.0287 | active | Supt20 (SPT20 SAGA complex component) | 4
-2.98 | -2.98 | -3.4 | -2.57 | active | Supt20 (SPT20 SAGA complex component) | 5
-4.22 | -2.98 | -4.54 | -3.89 | active | Supt20 (SPT20 SAGA complex component) | 6
-2.67 | -3.25 | -3.27 | -2.07 | active | Map6 (microtubule-associated protein 6) | 1
-3.05 | -3.25 | -3.23 | -2.87 | active | Map6 (microtubule-associated protein 6) | 2
-4.08 | -3.25 | -3.73 | -4.44 | active | Map6 (microtubule-associated protein 6) | 3
-0.612 | -1.68 | 0.446 | -1.67 | inactive | Map6 (microtubule-associated protein 6) | 4
-0.978 | -1.68 | -0.275 | -1.68 | inactive | Map6 (microtubule-associated protein 6) | 5
-3.51 | -1.68 | -3.64 | -3.39 | active | Map6 (microtubule-associated protein 6) | 6
4.56 | 0.213 | 4.36 | 4.76 | active | Bmpr2 (bone morphogenetic protein receptor type 2) | 1
0.213 | 0.213 | -0.533 | 0.959 | inactive | Bmpr2 (bone morphogenetic protein receptor type 2) | 2
-3.2 | 0.213 | -3.29 | -3.11 | active | Bmpr2 (bone morphogenetic protein receptor type 2) | 3
1.88 | -1.48 | 4.34 | -0.582 | inactive | Bmpr2 (bone morphogenetic protein receptor type 2) | 4
-1.48 | -1.48 | -1.81 | -1.16 | inactive | Bmpr2 (bone morphogenetic protein receptor type 2) | 5
-3.1 | -1.48 | -2.95 | -3.25 | active | Bmpr2 (bone morphogenetic protein receptor type 2) | 6
-0.668 | -1.69 | -0.843 | -0.492 | inactive | Krr1 (KRR1 small subunit processome component) | 1
-1.69 | -1.69 | -2.02 | -1.36 | inactive | Krr1 (KRR1 small subunit processome component) | 2
-3.3 | -1.69 | -3.21 | -3.4 | active | Krr1 (KRR1 small subunit processome component) | 3
1.93 | 1.11 | 3.39 | 0.459 | inactive | Krr1 (KRR1 small subunit processome component) | 4
1.06 | 1.11 | 1.76 | 0.36 | inactive | Krr1 (KRR1 small subunit processome component) | 5
0.695 | 1.11 | 2.18 | -0.793 | inactive | Krr1 (KRR1 small subunit processome component) | 6
-2.91 | -4.14 | -4.09 | -1.73 | active | Neil2 (nei like 2 (E. coli)) | 1
-4.06 | -4.14 | -4.19 | -3.93 | active | Neil2 (nei like 2 (E. coli)) | 2
-5.44 | -4.14 | -5.11 | -5.78 | active | Neil2 (nei like 2 (E. coli)) | 3
3.62 | 0.199 | 6.78 | 0.464 | active | Neil2 (nei like 2 (E. coli)) | 4
2.29 | 0.199 | 4.65 | -0.0671 | active | Neil2 (nei like 2 (E. coli)) | 5
-2.85 | 0.199 | -3.43 | -2.28 | active | Neil2 (nei like 2 (E. coli)) | 6

7 entries from above, showing only “TNF reporter z-score, repeat 1”:
Abcb1a (ATP-binding cassette, sub-family B member 1A) #2: -4
Abcb1a (ATP-binding cassette, sub-family B member 1A) #3: -5.51
Abcb1a (ATP-binding cassette, sub-family B member 1A) #4: 4.44
Abcb1a (ATP-binding cassette, sub-family B member 1A) #5: 0.516
Abcb1a (ATP-binding cassette, sub-family B member 1A) #6: -1.02
Supt20 (SPT20 SAGA complex component) #1: -1.25
Supt20 (SPT20 SAGA complex component) #2: -4.46
